PubChem BioAssay AID504808 – Drosophila RNAi Screening Center, 2011

Aim: 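Fly genes required to hold E2F transcription in check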 (primary screen)
Cell system: Drosophila S2 cells
Knock-down reagent: long dsRNA against Drosophila genes
Read-out: 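Firefly luciferase driven by E2F sites, normalised to Renilla luciferase on the same minimal promoter, measured by plate reader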
Scale: E2F firefly: higher = more E2F reporter activity; Renilla normaliser: higher = more normaliser reporter signal
Call rule: 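Called active if the normalised E2F reporter went up by over 50%; the cutoff is arbitrary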
In all, the deposit lists about 21,000 reagents; below is a random part of those that have a named target and a result. In the full data, 18 (0.084%) were called active. 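Raw counts without plate normalisation, one of two replicates; the ratio scores behind the calls were not deposited.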 Not given: the amount of reagent, the time to read-out.

How did the screen score mRpL16 [DRSC18550]?
E2F firefly, rep 1: 2185; Renilla normaliser, rep 1: 1000; call: inactive

For Muc68D [DRSC10569], how do the results read?
E2F firefly, rep 1: 72691; Renilla normaliser, rep 1: 3819; call: inactive

What is on record for Gnf1 [DRSC12351]?
E2F firefly, rep 1: 96504; Renilla normaliser, rep 1: 5422; call: inactive

For pyr [DRSC06319], how do the results read?
E2F firefly, rep 1: 94368; Renilla normaliser, rep 1: 4070; call: inactive

Which result is listed for CG31102 [DRSC14260]?
E2F firefly, rep 1: 1.13e5; Renilla normaliser, rep 1: 6122; call: inactive

How did the screen score CG16978 [DRSC02553]?
E2F firefly, rep 1: 96788; Renilla normaliser, rep 1: 4015; call: inactive

What did the screen give for l(3)07882 [DRSC15882]?
E2F firefly, rep 1: 61629; Renilla normaliser, rep 1: 3216; call: inactive

What is on record for CG13983 [DRSC02315]?
E2F firefly, rep 1: 1.54e5; Renilla normaliser, rep 1: 5485; call: inactive

Which result is listed for OSCP1 [DRSC06304]?
E2F firefly, rep 1: 89897; Renilla normaliser, rep 1: 3896; call: inactive

What did the screen give for CG11370 [DRSC11653]?
E2F firefly, rep 1: 1.27e5; Renilla normaliser, rep 1: 8518; call: inactive

Targets above whose target name starts with C or c:
CG31102 [DRSC14260] — E2F firefly, rep 1: 1.13e5; Renilla normaliser, rep 1: 6122; call: inactive
CG16978 [DRSC02553] — E2F firefly, rep 1: 96788; Renilla normaliser, rep 1: 4015; call: inactive
CG13983 [DRSC02315] — E2F firefly, rep 1: 1.54e5; Renilla normaliser, rep 1: 5485; call: inactive
CG11370 [DRSC11653] — E2F firefly, rep 1: 1.27e5; Renilla normaliser, rep 1: 8518; call: inactive

Further reagents follow.
What is on record for mTerf3 [DRSC11759]?
E2F firefly, rep 1: 66369; Renilla normaliser, rep 1: 3790; call: inactive

Which result is listed for Ir94c [DRSC13539]?
E2F firefly, rep 1: 88192; Renilla normaliser, rep 1: 2819; call: inactive

What did the screen give for Golgin245 [DRSC04374]?
E2F firefly, rep 1: 80864; Renilla normaliser, rep 1: 3562; call: inactive

With SKIP [DRSC14713], what was measured?
E2F firefly, rep 1: 1.29e5; Renilla normaliser, rep 1: 7442; call: inactive

Which result is listed for SKIP [DRSC14714]?
E2F firefly, rep 1: 1.45e5; Renilla normaliser, rep 1: 7489; call: inactive

How did the screen score SKIP [DRSC15864]?
E2F firefly, rep 1: 1.36e5; Renilla normaliser, rep 1: 7608; call: inactive

Which result is listed for SKIP [DRSC16195]?
E2F firefly, rep 1: 76111; Renilla normaliser, rep 1: 3570; call: inactive

Which result is listed for SKIP [DRSC16196]?
E2F firefly, rep 1: 1.41e5; Renilla normaliser, rep 1: 7249; call: inactive

What did the screen give for CG6271 [DRSC16006]?
E2F firefly, rep 1: 1836; Renilla normaliser, rep 1: 1036; call: inactive
